Results are given in words; binding and its absence hold for the method and conditions named. Binding seen in cells or lysates may run through a third protein. Binding calls can cover weak binding; strength is not graded here.
Target: PhS3L-SLF1::FLAG (Petunia hybrida)
Assay: co-IP; in vitro germinated S1/PhS3L-SLF1::FLAG pollen tubes continuously treated with S3S3 or S3LS3L style extracts; pollen tube extracts with anti-FLAG affinity gel 4 h at 4°C, PBS washes; blot with PhS-RNase and FLAG antibodies

B1: PhS3-RNase from S3S3 style extract (enzyme, UniProt Q40875 23-222)
chain: NFDYFQLVLTWPASFCYPKNKCQRRSNNFTIHGLWPEKKRFRLEFCTGDKYKRFLEEDNIINVLERHWIQMRFDETYANTKQPLWEHEYNRHGICCKNLYDQKAYFLLAMRLKDKLDLLTTLRTHGITPGTKHTFGEIQKAIKTVTSNNDPDLKCVENIKGVMELNEIGICYTPAADRFDRCRHSNTCDETSSTKILFRG
binding: binds
